# Reference: patent publication US9668993B2, “Non-steroidal anti-inflammatory drug dosing regimen” (Johnson & Johnson Consumer Inc., priority 2003, dated 2017)
# Assay: typical duration of action of an immediate release dose (from product labeling)
# Type: in vivo
row,Compound,ATDAIRD (average therapeutic duration of action of an effective immediate release dose) [h]
1,"CC(C)Cc1ccc(C(C)C(=O)O)cc1 (stereo not drawn) [ibuprofen, 2-(4-isobutylphenyl)-propionic acid]",5
2,CC(C(=O)O)c1cccc(C(=O)c2ccccc2)c1 (stereo not drawn) [ketoprofen],5
3,COc1ccc2cc([C@H](C)C(=O)O)ccc2c1 [naproxen],10
